Assay results reported in PubChem BioAssay AID2685 (National Center for Advancing Translational Sciences (NCATS), 2010).
The other results are listed elsewhere or left out. The main result of the screen is listed elsewhere. These columns were measured beside it and carry no call. Most of these compounds were active or inconclusive in the main read-out, so they are no random draw. Words in brackets tell the shape of the fitted curve; partial curves, single points and poor fits give uncertain potencies.

Assay: qHTS Assay for Lipid Storage Modulators in Drosophila S3 Cells;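 for cell number change: cells counted by Cell Tracker Red CMTPX staining in the red channel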
Settings: BODIPY lipid droplet fluorescence, 18-24 h; for cell number change: measured here: cell count max response, cells fed with added oleic acid
Summary of the method: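 Drosophila S3 cells got compounds at several concentrations plus oleic acid (400 uM solution). Laser-scanning cytometry with 488 nm excitation read lipid droplets at 500-530 nm and cells at 575-640 nm. Percent activity was relative to 20 uM Triacsin C.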

[1] = measured here: lipid fluorescence (Fed channel) AC50, cells fed with added oleic acid
[2] = measured here: cell number channel AC50, cells fed with added oleic acid

Cn1cnc([N+](=O)[O-])c1NCc1ccccc1
cell number change: -14.2%

COc1ccc(C(=O)COC(=O)c2ccc(OC)c(OC)c2)cc1OC
cell number change: -10.9% | AC50 [1]: 0.58 µM [rising, single point]

COc1cccc(CNc2nc3nc(C)cc(C)n3n2)c1
cell number change: 23.2% | AC50 [1]: 14.6 µM [rising, partial curve]

c1ccc(CCCN2CCN(c3ccccn3)CC2)cc1
cell number change: 15% | AC50 [1]: 0.461 µM [rising, full curve, poor fit]

COc1ccc(CN2CCNC(=O)C2CC(=O)N(C)CC2CCOCC2)cc1C (stereo not given)
cell number change: -1.38% | AC50 [1]: 6.51 µM [falling, single point]

COc1cccc(NC(=O)CCN2C(=O)c3cccc([N+](=O)[O-])c3C2=O)c1
cell number change: 18% | AC50 [1]: 23.1 µM [falling, single point]

COc1ccc(Cn2c(=O)sc3ccccc32)cc1
cell number change: 7.11% | AC50 [1]: 3.66 µM [rising, partial curve, poor fit]

O=C(NCCCN1CCOCC1)c1cc(-c2ccccc2F)no1
cell number change: -2.95% | AC50 [1]: 6.51 µM [rising, single point]

CC(C)C(=O)N(Cc1ccccc1)S(=O)(=O)c1ccc2c(c1)oc(=O)n2C
cell number change: -16.5% | AC50 [1]: 29.1 µM [falling, single point]

CC(=O)Nc1nnc(Cc2ccccc2)s1
cell number change: 17.5%

CCc1ccc(NC(=O)C2=CC(c3ccc(OC)cc3)=NS(=O)(=O)N2C)cc1
AC50 [1]: 6.51 µM [falling, partial curve]

COc1ccc(NC(=O)CSc2nnnn2C2CCCC2)c(OC)c1
cell number change: -13.3%

Cc1ccc(/C=C/C(=O)Nn2cnnc2)cc1
cell number change: -24.9% | AC50 [2]: 0.291 µM [falling, full curve, poor fit] | AC50 [1]: 0.58 µM [falling, full curve]

Cc1cc(C(=O)NC2CCCN(Cc3ccccc3F)C2)n[nH]1 (stereo not given)
cell number change: 2.35%

FC(F)Oc1ccc(C2N=C(c3ccccc3)NO2)cc1 (stereo not given)
cell number change: 12.1%

Cc1ccc(S(=O)(=O)N(C)C)cc1NC(=O)CN1C(=O)NC2(CCCCCC2)C1=O
cell number change: -15.8% | AC50 [2]: 6.51 µM [rising, single point]

CCOc1cccc(N2C(=O)CC(NCc3ccc(S(N)(=O)=O)cc3)C2=O)c1 (stereo not given)
cell number change: -0.517% | AC50 [1]: 3.26 µM [falling, single point]

O=C(Cc1cccc2ccccc12)Nc1cc(C(=O)O)cc(C(=O)O)c1
cell number change: 8.47% | AC50 [1]: 29.1 µM [rising, single point]

NS(=O)(=O)c1ccc(CNS(=O)(=O)c2cccc3nonc23)cc1
cell number change: 0.387%

CS(=O)(=O)c1ccc(C(=O)OCC(=O)c2ccc(Cl)s2)cc1
cell number change: -62% | AC50 [2]: 29.1 µM [falling, single point]

CCCNC(=O)c1cnc(Sc2ncc(C(F)(F)F)cc2Cl)n1C
cell number change: -17.7% | AC50 [1]: 6.51 µM [falling, single point]

Cc1ccc(-c2cn3nc(C)c(C)nc3n2)cc1
AC50 [1]: 4.11 µM [rising, partial curve]

COc1ccc(OC)c(-c2csc(NC(=O)Cc3cc(OC)c(OC)c(OC)c3)n2)c1
cell number change: 22.3%

CCOC(=O)CSc1nc2ccccc2n1CC(=O)N(C(C)C)C(C)C
cell number change: -22.2% | AC50 [1]: 20.6 µM [falling, partial curve]

CN(CC(=O)Nc1cccc(F)c1)CC(=O)NC(c1ccccc1)c1ccccc1
cell number change: -6.45% | AC50 [1]: 0.13 µM [rising, full curve, poor fit]

CCOc1ccc2nc(SC3CC(=O)N(c4ccc(OC)cc4)C3=O)sc2c1 (stereo not given)
cell number change: -22.9% | AC50 [1]: 14.6 µM [falling, partial curve, poor fit]

COC(=O)c1c(NC(=O)CN2CCN(Cc3ccc4c(c3)OCO4)CC2)sc(C)c1C
cell number change: -72.8% | AC50 [2]: 14.6 µM [falling, partial curve] | AC50 [1]: 20.6 µM [falling, partial curve]

Cc1ccc(C)c2[nH]c(=O)c(CCNC(=O)c3ccc4c(c3)OCO4)cc12
cell number change: 137% | AC50 [2]: 0.58 µM [rising, full curve] | AC50 [1]: 0.731 µM [rising, partial curve]

Cc1ccc2nc(N3CCN(Cc4ccc(F)cc4)C3=O)c(C)cc2c1
cell number change: 72.8% | AC50 [2]: 14.6 µM [rising, partial curve] | AC50 [1]: 5.8 µM [rising, single point]

COc1ccc(OC)c(CNC(=O)C2CCC(=O)N2C(C)C)c1 (stereo not given)
cell number change: 3.19%

CCOC(=O)CCn1c2nc(C)cc(C)c2c(=O)n1-c1ccccc1
cell number change: 57.7% | AC50 [2]: 4.61 µM [rising, full curve] | AC50 [1]: 8.2 µM [rising, partial curve]

CCn1nc(C(=O)NCCc2ccc(S(N)(=O)=O)cc2)c2ccccc2c1=O
cell number change: 1.6% | AC50 [1]: 16.4 µM [falling, single point]

O=C(c1ccc(NS(=O)(=O)c2cccs2)cc1)N1CCCCC1
cell number change: -22.6% | AC50 [1]: 20.6 µM [falling, single point]

O=C(CCN1C(=O)S/C(=C\c2ccc(F)cc2)C1=O)Nc1ccc(O)cc1C(=O)O
AC50 [1]: 6.51 µM [falling, single point]

COc1ccc(-c2noc(CCC(=O)Nc3ccc4c(c3)OCCO4)n2)cc1
cell number change: 26.7% | AC50 [2]: 0.00461 µM [rising, full curve, poor fit] | AC50 [1]: 6.51 µM [rising, single point]

Cc1cccc(OCCCCn2c(CO)nc3ccccc32)c1
cell number change: 10.6% | AC50 [1]: 1.64 µM [rising, partial curve, poor fit]

COc1ccc2c(c1)c(CC(=O)OCC(=O)N(C)C)c(C)n2C(=O)c1ccc(Cl)cc1
cell number change: -27.6% | AC50 [1]: 0.562 µM [rising, full curve, poor fit]

O=C(CC1NCCNC1=O)OCc1ccccc1 (stereo not given)
cell number change: -27.9% | AC50 [1]: 29.1 µM [falling, single point]

O=C(CCNC(=O)C1CCN(S(=O)(=O)c2ccccc2)CC1)NCc1cccc(Cl)c1
cell number change: -9.63% | AC50 [1]: 1.03 µM [rising, full curve]

N#Cc1c(CSCC(=O)O)cc(=O)n2c1[nH]c1ccccc12
cell number change: 27.3% | AC50 [1]: 29.1 µM [rising, single point]
